Measured values reported in PubChem BioAssay (NCATS).
Inconclusive results, whose numbers are uncertain, are shown with a selection of clear calls. For some assays here: Potencies of inconclusive entries are doubtful fits and often do not repeat. For some assays here: A note “side channel” means that the fit belongs to a control or component signal, not to the main read-out. The source made the active and inactive calls. Unless noted, calls come from the whole dose curve; as a rule, active = well fitted curve in the direction sought with a large enough effect; inconclusive = small, poorly fitted or top-dose-only effect, or another doubt; inactive = no such curve, though single readings can be large; an effect the other way counts as inactive or inconclusive.

Chains of the proteins cited; added tags and fusions are not shown. Lines headed by an entry give the natural chain unless they say otherwise; changes in a name come on top.
UniProt P03372, whole entry, looked up: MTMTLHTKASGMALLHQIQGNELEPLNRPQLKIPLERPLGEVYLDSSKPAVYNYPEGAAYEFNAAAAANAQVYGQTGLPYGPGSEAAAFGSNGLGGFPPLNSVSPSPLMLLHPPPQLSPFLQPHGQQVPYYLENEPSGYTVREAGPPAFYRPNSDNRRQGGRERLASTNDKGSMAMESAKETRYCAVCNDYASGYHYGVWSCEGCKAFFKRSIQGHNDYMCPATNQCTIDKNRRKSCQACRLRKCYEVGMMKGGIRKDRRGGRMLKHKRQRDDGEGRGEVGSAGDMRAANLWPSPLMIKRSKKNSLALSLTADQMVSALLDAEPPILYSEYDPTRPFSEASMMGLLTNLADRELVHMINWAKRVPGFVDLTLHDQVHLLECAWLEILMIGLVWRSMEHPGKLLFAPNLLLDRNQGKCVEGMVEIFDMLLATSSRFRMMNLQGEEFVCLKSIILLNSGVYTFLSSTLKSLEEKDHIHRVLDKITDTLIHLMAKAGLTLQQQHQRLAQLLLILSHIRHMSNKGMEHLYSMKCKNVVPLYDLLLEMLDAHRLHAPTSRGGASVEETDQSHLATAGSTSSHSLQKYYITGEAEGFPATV
UniProt Q03181: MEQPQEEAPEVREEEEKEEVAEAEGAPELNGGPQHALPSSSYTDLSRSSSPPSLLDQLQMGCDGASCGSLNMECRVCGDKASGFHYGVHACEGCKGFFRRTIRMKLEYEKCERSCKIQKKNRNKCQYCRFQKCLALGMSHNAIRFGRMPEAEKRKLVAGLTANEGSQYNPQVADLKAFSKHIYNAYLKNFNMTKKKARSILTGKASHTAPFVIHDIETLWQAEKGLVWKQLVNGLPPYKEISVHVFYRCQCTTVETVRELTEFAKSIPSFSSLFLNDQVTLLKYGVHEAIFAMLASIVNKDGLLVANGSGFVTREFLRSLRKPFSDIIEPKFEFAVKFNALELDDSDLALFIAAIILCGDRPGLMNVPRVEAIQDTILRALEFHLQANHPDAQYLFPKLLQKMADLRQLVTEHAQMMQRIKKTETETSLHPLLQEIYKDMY
UniProt P10828: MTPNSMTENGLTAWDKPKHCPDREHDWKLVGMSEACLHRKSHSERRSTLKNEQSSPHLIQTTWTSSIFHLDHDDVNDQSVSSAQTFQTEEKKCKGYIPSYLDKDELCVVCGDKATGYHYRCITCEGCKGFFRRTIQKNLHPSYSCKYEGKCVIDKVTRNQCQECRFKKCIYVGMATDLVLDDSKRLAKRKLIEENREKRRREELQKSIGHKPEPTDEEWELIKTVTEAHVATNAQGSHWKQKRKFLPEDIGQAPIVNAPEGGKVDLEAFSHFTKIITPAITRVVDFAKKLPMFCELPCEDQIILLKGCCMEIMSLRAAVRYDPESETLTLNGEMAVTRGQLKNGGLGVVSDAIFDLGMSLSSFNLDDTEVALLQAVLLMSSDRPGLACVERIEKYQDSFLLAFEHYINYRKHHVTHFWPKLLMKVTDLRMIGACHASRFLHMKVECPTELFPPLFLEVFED
UniProt P19793: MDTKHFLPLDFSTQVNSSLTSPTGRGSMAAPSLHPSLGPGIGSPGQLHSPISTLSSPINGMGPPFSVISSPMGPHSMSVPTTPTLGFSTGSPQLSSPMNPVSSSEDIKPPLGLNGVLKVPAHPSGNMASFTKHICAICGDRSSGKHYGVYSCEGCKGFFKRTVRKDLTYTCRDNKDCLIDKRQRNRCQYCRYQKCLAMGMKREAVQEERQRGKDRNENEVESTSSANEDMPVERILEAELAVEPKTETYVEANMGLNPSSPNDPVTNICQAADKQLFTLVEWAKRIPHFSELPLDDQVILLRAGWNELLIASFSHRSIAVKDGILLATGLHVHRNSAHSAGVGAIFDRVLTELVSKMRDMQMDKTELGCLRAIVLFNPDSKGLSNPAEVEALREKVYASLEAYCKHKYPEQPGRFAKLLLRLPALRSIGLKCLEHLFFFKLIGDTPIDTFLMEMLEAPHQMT
UniProt P10275: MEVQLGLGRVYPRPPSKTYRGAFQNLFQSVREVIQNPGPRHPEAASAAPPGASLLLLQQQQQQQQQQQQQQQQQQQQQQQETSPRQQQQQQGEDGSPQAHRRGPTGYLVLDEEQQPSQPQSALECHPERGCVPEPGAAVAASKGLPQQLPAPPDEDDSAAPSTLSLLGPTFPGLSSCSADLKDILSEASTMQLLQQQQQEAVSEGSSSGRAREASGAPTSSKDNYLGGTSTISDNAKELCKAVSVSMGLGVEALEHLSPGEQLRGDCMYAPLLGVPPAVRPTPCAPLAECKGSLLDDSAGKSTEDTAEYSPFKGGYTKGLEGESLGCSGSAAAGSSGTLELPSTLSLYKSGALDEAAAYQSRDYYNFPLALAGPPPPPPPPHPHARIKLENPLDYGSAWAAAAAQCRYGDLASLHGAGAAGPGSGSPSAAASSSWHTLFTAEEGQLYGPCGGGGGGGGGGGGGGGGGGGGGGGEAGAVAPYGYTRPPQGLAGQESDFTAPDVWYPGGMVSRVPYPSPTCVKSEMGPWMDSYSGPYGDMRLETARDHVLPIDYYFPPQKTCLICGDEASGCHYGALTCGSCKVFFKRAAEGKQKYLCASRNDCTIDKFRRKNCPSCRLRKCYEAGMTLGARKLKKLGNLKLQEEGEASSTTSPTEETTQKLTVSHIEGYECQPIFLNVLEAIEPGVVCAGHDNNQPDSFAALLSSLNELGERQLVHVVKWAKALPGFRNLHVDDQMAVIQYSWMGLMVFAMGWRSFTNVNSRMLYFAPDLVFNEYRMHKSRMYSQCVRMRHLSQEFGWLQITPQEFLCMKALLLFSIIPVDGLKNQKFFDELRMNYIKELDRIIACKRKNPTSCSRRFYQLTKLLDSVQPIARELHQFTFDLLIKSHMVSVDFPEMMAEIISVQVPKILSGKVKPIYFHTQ
UniProt Q07869: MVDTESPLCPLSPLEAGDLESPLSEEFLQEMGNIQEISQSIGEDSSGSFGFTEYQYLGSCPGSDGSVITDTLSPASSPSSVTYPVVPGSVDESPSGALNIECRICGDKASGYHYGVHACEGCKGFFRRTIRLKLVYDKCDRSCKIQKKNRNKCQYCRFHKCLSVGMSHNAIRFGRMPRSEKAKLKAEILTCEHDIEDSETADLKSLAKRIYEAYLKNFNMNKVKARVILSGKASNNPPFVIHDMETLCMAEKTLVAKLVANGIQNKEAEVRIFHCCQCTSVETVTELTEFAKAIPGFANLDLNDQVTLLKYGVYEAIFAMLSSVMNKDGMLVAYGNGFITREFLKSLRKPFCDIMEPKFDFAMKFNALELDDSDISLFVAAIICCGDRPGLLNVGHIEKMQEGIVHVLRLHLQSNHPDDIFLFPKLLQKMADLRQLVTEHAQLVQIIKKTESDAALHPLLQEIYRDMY

How the values were obtained:
[1] = MultiTox-Fluor Cytotoxicity Assay - LYMP1-001 - Live Cells (AID 947); note: potency is the fitted concentration of half-maximal effect
[2] = Cell Viability - LYMP2-012 (AID 982); conditions: LYMP2-012 lymphoblastoid cell viability qHTS; activity change, negative = cytotoxicity: at 92.2 µM (top of the series);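 note: cellular ATP by luciferase luminescence where a drop means cytotoxicity; cells exposed to compound for one day before reading; 0% = DMSO only and full loss = 92 µM tetraoctylammonium bromide; nearly all actives have a fitted effect of over 55% in size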
[3] = Cell Viability - LYMP2-016 (AID 984);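 note: cells exposed to compound for 24 hours at 37 °C; % is set by controls: 0 for no effect and ±100 for the full control effect; nearly all actives have a fitted effect of over 55% in size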
Method in brief: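 Cells were seeded at 2500 per well and rested 5 hr before a 24 hr compound exposure at 37 C. Viability was then gauged as cellular ATP by luciferase luminescence, with AC50 values fitted to the Hill equation.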

[4] = Cell Viability - LYMP2-024 (AID 988); note: potency is the fitted concentration of half-maximal effect; nearly all actives have a fitted effect of over 60% in size
Method in brief: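 Cells at 2500 per well received compound for 24 hr after a 5 hr settling period. Viability was scored by CellTiter-Glo luminescence, with AC50 from Hill fits.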

[5] = Cell Viability - LYMP2-005 (AID 967);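 note: cells exposed to compound for 24 h at 37 °C; plate controls were DMSO only for no effect and 92 µM tetraoctylammonium bromide control for full effect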
Method in brief: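 Acute cytotoxicity is scored as a concentration-dependent drop in intracellular ATP in human lymphoblastoid LYMP2-005 cells after 24 h compound treatment. ATP is quantified by luciferase luminescence, and AC50 is derived by Hill-equation modelling.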

[6] = Cell Viability - LYMP2-010 (AID 981);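 note: cells exposed to compound for 24 hours at 37 °C; nearly all actives have a fitted effect of over 55% in size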; note: potency is the fitted concentration of half-maximal effect
Method in brief: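 This 24 hr viability screen uses LYMP2-010 lymphoblastoid cells, quantifies ATP via luciferase luminescence, and derives AC50 from Hill fits of qHTS concentration-response data.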

[7] = Cell Viability - LYMP2-020 (AID 986); conditions: activity change, negative = viability loss: at 92.2 µM (top of the series);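 note: potency is the fitted concentration of half-maximal effect; cells exposed to compound for 24 h at 37 °C; nearly all actives have a fitted effect of over 55% in size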
Method in brief: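 Cells at 2500 per well receive a 24 hr compound exposure at 37 C. Viability is measured as ATP-dependent luciferase luminescence, with AC50 modeled from qHTS concentration-response curves.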

[8] = target: Estrogen receptor (Homo sapiens) (UniProt P03372); assay: qHTS assay for small molecule antagonists of estrogen receptor alpha signaling (AID 588513; active = well fitted curve in the direction sought with a large enough effect in the signal ratio, with a control signal flat, not every such curve was filed as active; inconclusive = small, poorly fitted or top-dose-only effect, or effect the other way, or a change in a side signal; inactive = no such curve, though single readings can be large or run the other way; the % refers to the signal ratio; note: % is set by controls: 0 for no effect and ±100 for the full control effect); conditions: ER-alpha-UAS-bla HEK293, beta-lactamase ratio, antagonist mode
Method in brief: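 Fluorescence from CCF4 substrate after 2 h at room temperature gave reporter activity; cells had been exposed to compound and 0.5nM 17-beta-estradiol for 18 h at 37 C. Hill-equation fitting yielded IC50 and maximal response.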

[9] = target: Bile acid receptor (Homo sapiens) (UniProt Q96RI1); assay: qHTS assay for small molecule antagonists of farnesoid X receptor signaling (AID 588526; calls by dose curve; note: % is set by controls: 0 for no effect and ±100 for the full control effect); conditions: HEK293T FXR-UAS-bla, beta-lactamase ratio, antagonist mode; activity change, negative = inhibition: at 76.7 µM (top of the series)
Method in brief: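 Antagonist mode: titrated compounds tested against chenodeoxycholic acid stimulation (normalized to 50 uM CDCA and DMSO) in GeneBLAzer HEK293T cells for 16 h. Beta-lactamase read by CCF4 fluorescence; IC50 from Hill fits.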

[10] = target: Peroxisome proliferator-activated receptor delta (Homo sapiens) (UniProt Q03181); assay: qHTS assay for small molecule agonists of peroxisome proliferator-activated receptor delta signaling (AID 588534; calls by dose curve;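 note: 0% = DMSO basal wells and 100% = positive control agonist at 10 µM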); conditions: HEK293T PPARdelta-UAS-bla, beta-lactamase ratio, 18 h; activation: at 76.7 µM (top of the series) unless noted
Method in brief: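 EC50 and efficacy values derive from Hill fits of a concentration series in a beta-lactamase reporter cell assay. Exposure is 18 hrs at 37 C, with CCF4 fluorescence as the readout.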

[11] = target: Peroxisome proliferator-activated receptor delta (Homo sapiens) (UniProt Q03181); assay: qHTS assay for small molecule antagonists of peroxisome proliferator-activated receptor delta signaling (AID 588535; active = well fitted inhibition curve with a large enough effect in the signal ratio, with a control signal flat, not every such curve was filed as active; inconclusive = small, poorly fitted or top-dose-only effect, or effect the other way, or a change in a side signal; inactive = no such curve, though single readings can be large or run the other way; the % refers to the signal ratio; note: potency is the fitted concentration of half-maximal effect); conditions: HEK293T PPARd-UAS-bla, beta-lactamase FRET ratio, 18 h; activity change, negative = inhibition: at 76.7 µM (top of the series) unless noted
Method in brief: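 Beta-lactamase reporter read-out (405 nm excitation, 460/530 nm emission) after CCF4 loading for 2 hrs at RT. HEK293T PPAR-delta-UAS-bla cells, 2% charcoal/dextran FBS, compounds for 18 hrs at 37 C. Hill fit gave IC50 and efficacy.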

[12] = target: Peroxisome proliferator-activated receptor gamma (Homo sapiens) (UniProt P37231); assay: qHTS assay for small molecule agonists of peroxisome proliferator-activated receptor gamma signaling (AID 588536; active = well fitted curve in the direction sought with a large enough effect in the signal ratio, with a control signal flat, not every such curve was filed as active; inconclusive = small, poorly fitted or top-dose-only effect, or effect the other way, or a change in a side signal; inactive = no such curve, though single readings can be large or run the other way; the % refers to the signal ratio; note: potency is the fitted concentration of half-maximal effect); conditions: HEK293 PPARg-UAS-bla, beta-lactamase ratio, 16 h; activation: at 76.7 µM (top of the series), percent of rosiglitazone response, DMSO as zero
Method in brief: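 Using GeneBLAzer HEK293 cells, response was quantified by CCF4 fluorescence and normalized between basal DMSO (0%) and rosiglitazone 2 uM (100%); curves yielded half-maximal stimulation concentration and efficacy.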

[13] = target: Peroxisome proliferator-activated receptor gamma (Homo sapiens) (UniProt P37231); assay: qHTS assay for small molecule antagonists of peroxisome proliferator-activated receptor gamma signaling (AID 588537; active = well fitted inhibition curve with a large enough effect in the signal ratio, with a control signal flat, not every such curve was filed as active; inconclusive = small, poorly fitted or top-dose-only effect, or effect the other way, or a change in a side signal; the % refers to the signal ratio;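 note: reporter cells co-stimulated with 50 nM rosiglitazone agonist during compound treatment; % of control where 0% means no effect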); conditions: HEK293 PPARg-UAS-bla, beta-lactamase ratio, antagonist mode; activity, negative = inhibition: at 76.8 µM (top of the series) unless noted
Method in brief: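 Read-out: CCF4 fluorescence (ex 405, em 460/530 nm) after 2 h at RT. Cells were HEK293 carrying a UAS-bla reporter and treated 16 h at 37 C with compound plus rosiglitazone (50 nM final). Normalized to rosiglitazone and DMSO.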

[14] = target: Vitamin D3 receptor (Homo sapiens) (UniProt P11473); assay: qHTS assay for small molecule antagonists of vitamin D receptor signaling (AID 588541; calls by dose curve;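 note: receptor activated by calcitriol during compound treatment; % is set by controls: 0 for no effect and ±100 for the full control effect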); conditions: HEK293T VDR-UAS-bla, beta-lactamase ratio, antagonist mode; activity change, negative = inhibition: at 76.7 µM (top of the series)
[15] = target: Thyroid hormone receptor beta (Homo sapiens) (UniProt P10828); assay: qHTS assay for small molecule agonists of thyroid hormone receptor beta signaling (AID 588545; calls by dose curve; note: potency is the fitted concentration of half-maximal effect); conditions: TR-UAS-bla GripTite HEK 293, beta-lactamase ratio, agonist mode, 18 h; activation: at 76.7 µM, percent of T3 response, DMSO as zero
Method in brief: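 Compounds were tested as agonists in TR-UAS-bla-GripTite HEK 293 cells. After 18 hrs at 37 C, CCF4 substrate was added and fluorescence read after 2 hrs at room temperature.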

[16] = target: Retinoic acid receptor RXR-alpha (Homo sapiens) (UniProt P19793); assay: qHTS assay for small molecule antagonists of retinoid X receptor alpha signaling (AID 588546; active = well fitted inhibition curve with a large enough effect in the signal ratio, with a control signal flat, not every such curve was filed as active; inconclusive = small, poorly fitted or top-dose-only effect, or effect the other way, or a change in a side signal; inactive = no such curve, though single readings can be large or run the other way; the % refers to the signal ratio; note: potency is the fitted concentration of half-maximal effect); conditions: HEK293T RXRa-UAS-bla, beta-lactamase ratio, antagonist mode
Method in brief: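 Beta-lactamase reporter inhibition, read as CCF4 fluorescence ratio (ex 405, em 460/530 nm) after 2 h at RT. HEK293T UAS-bla cells, 2500/well, were stimulated with 9-cis-RA at 500 or 100 nM final alongside test compound for 18 h at 37 C.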

[17] = qHTS assay for small molecule agonists of the antioxidant response element (ARE) signaling pathway (AID 651741; active = well fitted activation curve with a large enough effect in the signal ratio; inconclusive = small, poorly fitted or top-dose-only effect, or effect the other way, or a change in a side signal; the % refers to the signal ratio; note: potency is the fitted concentration of half-maximal effect; for activation: % of control where 0% means no effect); conditions: HepG2 ARE-bla reporter, beta-lactamase FRET ratio, 16 h; activation: at 96 µM (top of the series) unless noted
Method in brief: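 HepG2 ARE-bla reporter cells, 2,000/well; 5 h settle at 37 C/5% CO2; compound pin transfer (23 nL, DMSO); 16 h at 37 C; LiveBLAzer B/G FRET substrate, 2 h RT; fluorescence intensity read.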

[18] = qHTS assay for small molecule activators of the nuclear factor-kappa B (NF-kB) signaling pathway (AID 651749; active = well fitted activation curve with a large enough effect in the signal ratio; inconclusive = small, poorly fitted or top-dose-only effect, or a change in a side signal; the % refers to the signal ratio; note: potency is the fitted concentration of half-maximal effect); conditions: NF-kB-bla ME-180 cells, beta-lactamase FRET ratio, 16 h; activation: active compounds read high
Method in brief: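 NF-kB-bla ME-180 cells, 2,000/well; 23 nL compound or DMSO pinned; 16 hr, 37C/5% CO2; beta-lactamase FRET read-out.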

[19] = qHTS assay for cell viability of HEK293 cells (AID 743288); conditions: ATP luminescence (CellTiter-Glo), 18 h; max response: active compounds read low; note: potency is the fitted concentration of half-maximal effect; nearly all actives have a fitted effect of over 50% in size
Method in brief: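 Viable-cell counts were inferred from luciferase-based ATP content in HEK293 cells seeded at 2,000/well, pre-incubated ≥5 h, then dosed with DMSO-solubilised compounds for 18 h at 37 C.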

[20] = target: Estrogen receptor (Homo sapiens) (UniProt P03372); assay: qHTS assay for small molecule agonists of estrogen receptor alpha signaling (AID 588514; calls by dose curve;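 note: 0% = vehicle only and 100% = reference agonist; nearly all actives have a fitted effect of over 70% in size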); conditions: ER-alpha-UAS-bla HEK293, beta-lactamase ratio, 18 h; activation: at 76.8 µM (top of the series), percent of full estradiol response, vehicle zero unless noted
Method in brief: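 Fluorescence from CCF4 cleavage reports ER-alpha-driven beta-lactamase expression in HEK 293 cells treated 18 hrs at 37 C. Data normalized to 17-beta-estradiol (20 nM) and DMSO, fitted to Hill equation.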

[21] = target: Glucocorticoid receptor (Homo sapiens) (UniProt P04150); assay: qHTS assay for small molecule antagonists of glucocorticoid receptor signaling (AID 588533; active = well fitted inhibition curve with a large enough effect in the signal ratio, with a control signal flat, not every such curve was filed as active; inconclusive = small, poorly fitted or top-dose-only effect, or effect the other way, or a change in a side signal; the % refers to the signal ratio;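 note: cells stimulated with 2 nM dexamethasone as agonist; potency is the fitted concentration of half-maximal effect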); conditions: HeLa MMTV-bla, GRE beta-lactamase ratio, antagonist mode, 18 h; activity change, negative = inhibition: at 76.8 µM (top of the series)
[22] = qHTS assay for small molecule agonists of the antioxidant response element (ARE) signaling pathway measured by Nrf2-dependant transcriptional activity (AID 720636; active = well fitted curve in the direction sought with a large enough effect in the repeat runs; inconclusive = weak or mixed curves; inactive = no such curve, though single readings can be large; an effect the other way counts as inactive or inconclusive; note: potency is the fitted concentration of half-maximal effect)
Method in brief: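 Reporter gene assay, HepG2 ARE-luc: 16 hr compound, 37 C, 5% CO2; read-out luciferase luminescence.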

[23] = target: Androgen receptor (Homo sapiens) (UniProt P10275); assay: qHTS assay for small molecule agonists of androgen receptor signaling (AID 588515; active = well fitted curve in the direction sought with a large enough effect in the signal ratio, with a control signal flat; inconclusive = small, poorly fitted or top-dose-only effect, or effect the other way, or a change in a side signal; inactive = no such curve, though single readings can be large or run the other way; the % refers to the signal ratio; note: % is set by controls: 0 for no effect and ±100 for the full control effect); conditions: AR-UAS-bla HEK293, beta-lactamase ratio, agonist 16 h; activation: active compounds read high
Method in brief: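 Stimulation of an AR-responsive β-lactamase reporter in GripTite HEK293 cells was measured after 16 h compound exposure at 37 °C, via CCF4 fluorescence after 2 h RT. EC50 from Hill fits, normalized to R1881 at 30 nM.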

[24] = target: Androgen receptor (Homo sapiens) (UniProt P10275); assay: qHTS assay for small molecule antagonists of androgen receptor signaling (AID 588516; active = well fitted curve in the direction sought with a large enough effect in the signal ratio, with a control signal flat, not every such curve was filed as active; inconclusive = small, poorly fitted or top-dose-only effect, or effect the other way, or a change in a side signal; inactive = no such curve, though single readings can be large or run the other way; the % refers to the signal ratio; note: % is set by controls: 0 for no effect and ±100 for the full control effect); conditions: AR-UAS-bla HEK293, beta-lactamase ratio, antagonist mode, 16 h; activity change, negative = inhibition: at 76.8 µM (top of the series)
Method in brief: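 Antagonist mode: inhibition of R1881-stimulated (10 nM final) bla reporter in GeneBLAzer AR HEK 293 cells, 16 h at 37C, compounds titrated. IC50 and efficacy from Hill-equation fits of 405/460–530 nm FRET ratios.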

[25] = target: Peroxisome proliferator-activated receptor alpha (Homo sapiens) (UniProt Q07869); assay: qHTS assay for small molecule agonists of the peroxisome proliferator-activated receptor alpha (PPARalpha) signaling pathway (AID 651778); conditions: PathHunter PPARalpha complementation, chemiluminescence, 6 h; max response: active compounds read high; note: % of control where 0% means no effect
Method in brief: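 Enzyme-fragment complementation assay in which ligand-bound PPARalpha translocates and forms an active enzyme that generates chemiluminescence. Cells were plated overnight, exposed to compound for 6 hr at 37 C, and then given detection reagent for 60 min at room temperature.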

[26] = activity, negative = inhibition: at 76.9 µM (top of the series) unless noted

Cc1ccc2c(c1[N+](=O)[O-])C(=O)c1ccccc1C2=O
Potency [1]: inconclusive: 501 nM [cytotoxic, full curve, poor fit] | Potency [2]: inactive | Potency [3]: inactive | Potency [4]: inconclusive: 39.8 µM [cytotoxic, partial curve, poor fit]

C[C@@H]1CC2(OC[C@]3(C)O[C@H]23)O[C@H]2C[C@@]3(C)[C@@H]4CC[C@H]5C(C)(C)C(O[C@@H]6OC[C@@H](O)[C@H](O)[C@H]6O)CC[C@@]56C[C@@]46CC[C@]3(C)[C@@H]12 (stereo partly specified)
Potency [5]: inactive | Potency [6]: inconclusive: 50.1 µM [cytotoxic, partial curve, poor fit] | Potency [7]: inconclusive: 50.1 µM [cytotoxic, single point]

Cc1ccc2ncccc2c1
Potency [6]: inactive

Cc1cccc(O)c1
activity, negative = inhibition ([8]; at 76.9 µM (top of the series)): inconclusive: -8.6% | activity, negative = inhibition ([8]; at 2.03 mM (top of the series)): inconclusive: -3.66%

COCCO
activity, negative = inhibition ([8]; at 76.9 µM (top of the series)): inconclusive: -46.2% | activity, negative = inhibition ([8]; at 2.03 mM (top of the series)): inconclusive: -13.1%

CC1(C)[C@@H]([C@@H](Br)C(Br)(Br)Br)[C@H]1C(=O)O[C@H](C#N)c1cccc(Oc2ccccc2)c1
activity, negative = inhibition [8, 26]: inconclusive: -90.5% | activity change, negative = inhibition [9]: inconclusive: -29.3% | activation [10]: inconclusive: -23.5% | Potency [11]: inconclusive: 7.94 µM [side channel, rising, full curve, poor fit] | Potency [12]: inconclusive: 15.8 µM [inhibitor, full curve, poor fit] | activity, negative = inhibition [13]: inconclusive: -26.7% | activity change, negative = inhibition [14]: inconclusive: -62.6% | Potency [15]: inconclusive: 35.5 nM [side channel, falling, full curve, poor fit] | Potency [16]: inconclusive: 39.8 µM [inhibitor, partial curve, poor fit] | Potency [17]: active: 21.7 µM | Potency [18]: inconclusive: 35.5 µM [side channel, falling, partial curve] | Potency [19]: active: 50.1 µM

CCCCCCCCCCCC[N+](C)(C)[O-]
activity, negative = inhibition [8, 26]: inconclusive: -34.4% | activation [20]: inconclusive: 45.2% | Potency [21]: inconclusive: 28.2 µM [activator, partial curve, poor fit] | Potency [13]: inactive | max response [16]: inconclusive: -59.9% | Potency [17]: inconclusive: 34.4 µM [activator, partial curve] | Potency [22]: inconclusive: 48.6 µM [activator, partial curve, poor fit]

Cc1ccc(N=Nc2c(O)ccc3ccccc23)c([N+](=O)[O-])c1
activity, negative = inhibition [8, 26]: inconclusive: -2.39% | activation [23]: inactive: 8.82% | activity, negative = inhibition [13]: inconclusive: -16.2% | Potency [22]: inconclusive: 54.5 µM [activator, partial curve, poor fit]

CCCCOC(=O)c1ccccc1
Potency [8, 26]: inactive | Potency [24]: inactive | Potency [12]: inconclusive: 50.1 µM [cytotoxic, side channel, partial curve, poor fit] | Potency [13]: inactive | Potency [17]: inactive | max response [25]: inactive: -1.04%
